Reference: paper PMC12118852

Target: T1, Flag-duRIG-I (duck) (UniProt D3TI84)
T1 sequence: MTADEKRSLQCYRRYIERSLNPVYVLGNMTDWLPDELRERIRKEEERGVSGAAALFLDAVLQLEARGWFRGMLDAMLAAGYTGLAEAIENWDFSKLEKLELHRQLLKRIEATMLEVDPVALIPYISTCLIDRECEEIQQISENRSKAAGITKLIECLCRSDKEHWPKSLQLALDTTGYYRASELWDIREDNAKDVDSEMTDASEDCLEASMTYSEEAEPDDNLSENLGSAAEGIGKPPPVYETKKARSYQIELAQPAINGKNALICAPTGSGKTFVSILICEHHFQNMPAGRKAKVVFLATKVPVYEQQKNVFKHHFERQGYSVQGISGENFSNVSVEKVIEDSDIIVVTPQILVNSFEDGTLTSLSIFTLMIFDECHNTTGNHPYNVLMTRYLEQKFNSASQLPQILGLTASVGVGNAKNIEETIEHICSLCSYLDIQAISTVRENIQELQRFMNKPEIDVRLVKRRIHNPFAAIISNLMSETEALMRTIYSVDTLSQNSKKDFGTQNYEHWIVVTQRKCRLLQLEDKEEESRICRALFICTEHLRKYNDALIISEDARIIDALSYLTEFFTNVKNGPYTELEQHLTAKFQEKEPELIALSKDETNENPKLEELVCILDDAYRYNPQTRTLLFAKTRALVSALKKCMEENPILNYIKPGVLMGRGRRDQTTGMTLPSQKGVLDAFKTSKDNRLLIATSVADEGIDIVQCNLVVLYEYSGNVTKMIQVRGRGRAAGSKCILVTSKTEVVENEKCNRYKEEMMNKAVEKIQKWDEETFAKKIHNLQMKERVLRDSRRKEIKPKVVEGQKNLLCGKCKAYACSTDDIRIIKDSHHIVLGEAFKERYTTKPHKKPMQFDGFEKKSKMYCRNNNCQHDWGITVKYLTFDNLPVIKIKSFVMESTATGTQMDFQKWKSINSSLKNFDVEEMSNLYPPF
Test: co-IP; lysates (RIPA buffer) of co-transfected HEK-293T cells; precipitated with anti-Flag antibody overnight at 4°C and protein A/G agarose; western blot

binding: no binding
Substance: HA-duTRIM14 (duck)

Results are given in words; binding and its absence hold for the method and conditions named. In cells and extracts the contact can be indirect. Tags and fused reporters may be left off the sequences shown.
